No constants are given. Whether binding was seen depends on the method and setting. Binding seen in cells or lysates may run through a third protein. Some entries that bind do so weakly or less than the wild type. For part of these data: Sequences can lack the tags named with a protein.
T1: APC membrane recruitment 1 (Amer1), endogenous (human (endogenous in MGC-803)) (UniProt Q5JTC6)
T1 sequence: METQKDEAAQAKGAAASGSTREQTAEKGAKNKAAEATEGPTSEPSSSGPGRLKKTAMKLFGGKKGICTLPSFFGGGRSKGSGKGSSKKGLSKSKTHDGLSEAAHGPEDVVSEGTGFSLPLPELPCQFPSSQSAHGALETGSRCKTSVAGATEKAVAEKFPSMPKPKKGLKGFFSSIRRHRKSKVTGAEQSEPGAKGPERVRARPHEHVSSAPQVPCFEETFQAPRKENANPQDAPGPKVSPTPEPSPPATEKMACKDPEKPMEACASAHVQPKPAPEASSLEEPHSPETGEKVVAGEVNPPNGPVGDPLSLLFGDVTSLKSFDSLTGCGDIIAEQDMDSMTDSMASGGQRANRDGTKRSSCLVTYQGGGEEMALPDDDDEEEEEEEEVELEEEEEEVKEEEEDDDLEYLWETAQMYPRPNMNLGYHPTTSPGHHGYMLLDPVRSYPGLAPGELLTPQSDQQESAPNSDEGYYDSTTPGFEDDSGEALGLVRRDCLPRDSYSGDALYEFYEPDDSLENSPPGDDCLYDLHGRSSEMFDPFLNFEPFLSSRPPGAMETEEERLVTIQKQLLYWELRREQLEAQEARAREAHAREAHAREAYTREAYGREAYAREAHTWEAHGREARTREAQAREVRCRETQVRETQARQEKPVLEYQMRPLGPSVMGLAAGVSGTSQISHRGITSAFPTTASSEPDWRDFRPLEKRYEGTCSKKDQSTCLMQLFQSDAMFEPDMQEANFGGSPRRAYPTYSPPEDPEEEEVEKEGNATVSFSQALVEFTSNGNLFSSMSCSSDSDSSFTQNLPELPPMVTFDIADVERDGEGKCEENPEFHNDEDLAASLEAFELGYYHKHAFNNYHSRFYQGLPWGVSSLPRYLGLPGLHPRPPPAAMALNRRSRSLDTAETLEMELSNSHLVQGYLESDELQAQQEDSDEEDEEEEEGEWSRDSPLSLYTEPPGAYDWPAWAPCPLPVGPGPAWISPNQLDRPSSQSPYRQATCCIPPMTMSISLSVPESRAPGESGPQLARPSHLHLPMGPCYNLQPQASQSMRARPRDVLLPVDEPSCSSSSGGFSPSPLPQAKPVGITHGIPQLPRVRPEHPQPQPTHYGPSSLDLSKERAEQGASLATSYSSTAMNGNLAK

T2: GST-KIF23 (human) (UniProt Q02241)
T2 sequence: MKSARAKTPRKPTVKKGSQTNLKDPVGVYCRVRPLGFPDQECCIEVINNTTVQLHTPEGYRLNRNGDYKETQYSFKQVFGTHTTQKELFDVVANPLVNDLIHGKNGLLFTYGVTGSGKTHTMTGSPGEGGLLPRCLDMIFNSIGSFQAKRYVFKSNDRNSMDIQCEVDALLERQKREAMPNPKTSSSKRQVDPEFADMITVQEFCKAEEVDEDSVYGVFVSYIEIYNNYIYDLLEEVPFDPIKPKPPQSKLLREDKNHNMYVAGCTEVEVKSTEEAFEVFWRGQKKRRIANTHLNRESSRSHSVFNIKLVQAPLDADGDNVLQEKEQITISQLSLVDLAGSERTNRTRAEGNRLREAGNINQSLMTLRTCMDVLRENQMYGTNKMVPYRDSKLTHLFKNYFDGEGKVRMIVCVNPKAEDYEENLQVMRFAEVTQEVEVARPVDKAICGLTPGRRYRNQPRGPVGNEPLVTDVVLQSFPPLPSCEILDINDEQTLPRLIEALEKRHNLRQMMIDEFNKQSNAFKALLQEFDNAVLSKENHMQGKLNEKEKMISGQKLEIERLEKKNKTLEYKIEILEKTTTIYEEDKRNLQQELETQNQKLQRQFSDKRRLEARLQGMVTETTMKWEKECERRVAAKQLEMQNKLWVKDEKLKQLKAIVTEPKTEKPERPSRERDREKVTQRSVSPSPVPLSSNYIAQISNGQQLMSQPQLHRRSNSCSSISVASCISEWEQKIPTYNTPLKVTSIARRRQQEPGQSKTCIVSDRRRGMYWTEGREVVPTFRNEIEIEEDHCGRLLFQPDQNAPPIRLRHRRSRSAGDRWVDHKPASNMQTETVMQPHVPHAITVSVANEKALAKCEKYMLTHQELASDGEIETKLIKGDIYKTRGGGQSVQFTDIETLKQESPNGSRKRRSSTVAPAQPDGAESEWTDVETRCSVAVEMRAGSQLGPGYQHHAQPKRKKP

B1: kinesin family member 23 (KIF23), endogenous (protein, UniProt Q02241 1-960)
chain: T2 sequence
B2: Flag-Amer1 (exogenous Amer1), in MGC-803 cells (protein, UniProt Q5JTC6 1-1135)
chain: T1 sequence
B3: FLAG-tagged Amer1-FL (full-length Amer1), in 293T cells (protein, UniProt Q5JTC6 1-1135)
chain: T1 sequence

Experiments:
[1] = biological target: T1, APC membrane recruitment 1 (Amer1), endogenous (human (endogenous in MGC-803)); assay: co-IP; endogenous Amer1 and KIF23; protein extract in Co-IP buffer, antibody overnight at 4°C, protein A/G-agarose, Western blot
[2] = biological target: T2, GST-KIF23 (human); assay: pull-down; Pierce GST Protein Interaction Pull-Down Kit; GST-tagged bait from E. coli immobilised on the spin column, prey protein added, Western blot for KIF23 and Amer1; only the target purified

Row | Binder | binding [1] | binding [2]
1 | B1 | binds | –
2 | B2 | – | binds
3 | B3 | – | binds

From PMC7244035
